The values below are quoted from earlier work in publication PMC11045845 (Nature Communications, 2024).

For this data set the following is noted: DMPC multi-bilayers.

Consider cyclo[(L-Trp-D-Leu)3-L-Gln-D-Leu], for which the tilt angle is 7 °.

For the substance gramicidin A, the tilt angle is reported as 15 °.
